These results are taken from article doi:10.1101/2021.12.20.473554.

The target in this experiment is T1, Flag-TSC22D4 (wild type, pcDNA3) (UniProt Q9EQN3).
T1 sequence: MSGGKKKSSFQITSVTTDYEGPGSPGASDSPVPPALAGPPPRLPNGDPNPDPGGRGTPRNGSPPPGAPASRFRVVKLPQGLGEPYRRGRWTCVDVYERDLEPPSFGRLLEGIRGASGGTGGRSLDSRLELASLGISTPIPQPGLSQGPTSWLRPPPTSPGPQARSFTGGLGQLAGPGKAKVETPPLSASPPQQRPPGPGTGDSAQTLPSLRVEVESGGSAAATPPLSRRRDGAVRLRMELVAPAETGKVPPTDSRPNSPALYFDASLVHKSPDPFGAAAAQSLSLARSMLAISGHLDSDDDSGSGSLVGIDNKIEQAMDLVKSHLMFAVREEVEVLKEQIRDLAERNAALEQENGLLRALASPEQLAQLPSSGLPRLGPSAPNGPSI
Nature of the experiment: co-IP.

Results are given in words; binding and its absence hold for the method and conditions named. Binding seen in cells or lysates may run through a third protein. Some binding calls cover weakened binding; strength is not graded here. Where a sequence is shown, tags or fusion partners need not be part of it.

B1: full length myc-TSC22D4 (protein, UniProt Q9EQN3 1-387)
chain: T1 sequence
On to B1, for which the binding result is “binds”.
